PubChem BioAssay AID1347426 (Functional Genomics Laboratory (NCATS/FGL), 2020)
Hit rate of the full screen: of about 31,000 sequences, about 1,400 (4.5%) were called active.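 How the source made its calls: active means median seed-adjusted z-score above 1 or below -1; inactive means the rest.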 The list shows a part of the results.

Test: Novel Modifiers of Survival Motor Neuron (SMN) Protein: Gene Identification via Genome-wide siRNA Screen;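 further: luminescence tracks full-length SMN protein made from the SMN2 reporter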
Details: HEK293T SMN2-luciferase reporter, siRNA knockdown, 72 h; actives lie on both sides
In short: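 HEK293T cells stably expressing an SMN2 splicing/cDNA-luciferase reporter were reverse-transfected with a druggable-genome siRNA library and read by luminescence at 72 hours; hits defined by MAD score above 1.0 or below -1.0.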

Sequence	median seed-adjusted z-score
GUCUAGAUGAUCACAAGUATT against PSMD1	active: -1.61
CUUCAAAGGUGACAAGUAUTT against MMP24	active: -1.28
GCAACUGGUAUUUAACAAUTT against ZDHHC19	inactive: 0.0354
UCUCCGAGGUUGACAGCGATT against CALML5	inactive: -0.175
CCACGUAACAUAUUGUGGATT against UHMK1	inactive: -0.269
GAAUACAACACGUACGGAATT against ZNF555	inactive: 0.141
GCACCCUAGAGAUCCGGAATT against MYBPH	inactive: 0.0513
CAAUGAUAAACCAAAUCAATT against SNX7	inactive: 0.146
CAGGUAUUCAGGUCCAUGATT against RASL11B	inactive: 0.507
GUAUCGCUGCUCAACAUCATT against CHD5	inactive: -0.195
ACAACUCUGUGCACAACAATT against SLC6A19	inactive: 0.478
ACCCAGAGAUUGCCCAGAATT against WFDC6	inactive: 0.0443
CUACUGCUGUGGAUUCAAATT against PHF20	inactive: 0.138
CCAUAACUGUUGUGAGAUUTT against MTMR8	inactive: -0.416
CAGUCGGAUCCAGAGCUGATT against GCHFR	inactive: -0.559
CUAUCCACCAUACAUUUCATT against NTM	inactive: 0
CGAUGCUGGAGAUUAAUCATT against RDH10	inactive: -0.28
GAACCUCUAUUGUGGACAATT against TMEM1	inactive: -0.191
GCAUUCACCGGUUCGUGGATT against GMPPB	inactive: 0.154
CAGUUGAAAUUAAACGGAATT against BRCA2	inactive: 0
CGACCUGGAUGAUCGAGAUTT against SULT2B1	inactive: 0
GGGACCUGGUGUUACGGAATT against OTUD7A	inactive: -0.53

Sequence	median seed-adjusted z-score
GCAAUGAAAAUACUCCGUATT against STK38	inactive: -0.961
GGGAGAACCGUGAGAAGAUTT against ACTRT2	inactive: -0.117
CAAUUUCUGUGAGAUGGAUTT against SLPI	inactive: 0.274
CGGAGAACAUUGUUGUUCUTT against TMTC2	inactive: 0.0277
GAGGCGACAUGUUAGUACATT against SENP1	inactive: 0.625
UCAGUGAAAUUCCAAUAAATT against GRINA	inactive: 0.175
CAAUCUAUGUCUUCGCCUUTT against ZDHHC9	inactive: -0.495
CUGCGUUUCUUGAACCUAATT against STK11IP	inactive: 0.0745
GGAAGGCUUUUAGCAAUGATT against ZNF570	inactive: 0.662
CGCUCAUGACUAUACGCUATT against PTPN11	inactive: 0.186
GUGGGAACCUUGUCACAUUTT against TAP1	inactive: -0.506
GCACCUGCAUGACAACGUATT against ADAM8	inactive: -0.407
GGGAUAAGCAGAGAUCUCATT against POLE4	inactive: -0.0404
GGUUGAAAAUGGAUUCGAATT against TCF21	inactive: -0.15
ACUUCUCUUUGAUCUCUGATT against TUBB4	inactive: 0
GCCUCGUAUAUGUCACUUUTT against ITFG2	inactive: 0.165
AAACCUAGCCGGCUCCAAATT against MGC21874	inactive: -0.354
GCAUGAUUCCUAUAGUCAATT against TAF15	inactive: 0.357
AGACGAUCCGGGUAAAGUUTT against LSM7	inactive: -0.45
GGGUUAUCUCUUUCAUACATT against CDC25A	inactive: 0.235
CGGUCUUCGGCAACAUUAATT against SLCO2A1	inactive: -0.0778
CUGUCCAAAUAGCACAUUUTT against ZNF619	inactive: -0.536

Sequence	median seed-adjusted z-score
CCAGAGUUCGUCAACUAAATT against PKD2L2	inactive: -0.0723
GACGUGUAGUGAAUGGGAATT against CBX3	inactive: -0.893
GCAGAAGUAUGAGCUGCGATT against MFAP4	inactive: -0.28
GGAUAUUACACCACCAUAUTT against MTMR6	inactive: -0.395
CACCCGUACAUCCUACUGATT against ZNF746	inactive: 0.1
GCUAUGAAGUGUAUAAGGATT against PRKG2	inactive: 0.272
GCAUGAAUGAGAGCCGAUATT against FUT7	inactive: -0.146
AGUACUUGAUGAAACCAUUTT against ACVR1B	inactive: 0.201
GGACAAAAGGUACUGGUGATT against TCAP	inactive: -0.177
AGACGACUGUUACAAGUUUTT against BACE1	inactive: -0.537
GCAACUGAAUUGAGUAUAATT against STX6	inactive: 0.748
GGUACACCCUCUUAUAUCATT against GANAB	inactive: 0.269
GCUGUAGAGUUGUAUGGAATT against BTN1A1	inactive: 0.291
AGCCCUCUUCUGACACUAATT against SERPINH1	inactive: 0.186
CAGCACCGCGACUACAUUATT against FUT7	inactive: -0.146
GGUUACUAAGAGACUAAAATT against AGPAT9	inactive: 0
GCAUUGAGAUUCCUGCAGATT against PKM2	inactive: -0.0312
GGAAAAACCUUCUACCUGATT against ZNF12	inactive: -0.144
AAUUCUUGAUCAUCUGCAATT against LOC158381	inactive: 0
CCAUCUUAAACUCGCUCUATT against GPR114	inactive: 0.805
CGACUACAUCAUGUCCUUUTT against MOGAT3	inactive: -0.383
GAUCCGUUCUGAUUAGUGATT against EZH1	inactive: 0.268

Sequence	median seed-adjusted z-score
GCAGUGUCAUCUGCAACAATT against EIF2B3	inactive: -0.271
GCAUUCACCAGAACGAGAATT against RIMS1	inactive: 0
GGUUUCAAGAUAACCCAAATT against POU2F3	active: -1.53
GCAUCCUACUUGUCCUAAUTT against REST	inactive: 0.416
GGAAUUUUGUAUUCUGUUUTT against MKNK2	inactive: 0.281
GUCUCACCAUGAACUCCAATT against LEPRE1	inactive: 0.121
UGACAAACUUAGGAGAAAATT against CALM1	inactive: 0.355
ACAGCGCUCUCAAUCCCUUTT against GPR150	inactive: -0.129
CAAGCUACGUAGAGAUCUATT against KIFC1	inactive: 0.0417
GGACUAUGAGCCUACCAAATT against RALA	inactive: 0.553
CAGAUGCCUUGAUUCGCGATT against ZNF543	inactive: 0
CAUUCAAUCCGGACCAUUUTT against CYP2J2	inactive: 0.00659
ACAUCAUCGACGAGAAUAATT against LHX1	inactive: 0
CAGUCUUGAUUGAUAUGGATT against TUBE1	inactive: -0.00933
CCAUGGAAGAGCUUGCUGATT against FMO5	inactive: 0.0069
CCUGCUAAGUAGCAUUGAATT against KLHL12	inactive: -0.0991
GGUCUACACUGACUACGCUTT against DNAH2	inactive: -0.342
CGGUGCUGCUAGACGUGAATT against HSPB6	inactive: 0.394
GGAGUUUGUUUGCAAGUAUTT against RREB1	inactive: -0.414
GGCCUCUCAUGCUUAGUUATT against PGGT1B	inactive: -0.164
GGAGCGGUUCAGAUCAAUATT against RAB39	inactive: -0.408
GCACAUACCCUGCAGAAGATT against PLIN	inactive: 0.166

Sequence	median seed-adjusted z-score
GGGUCUCAAUGGGUCUCAUTT against NGB	inactive: 0
GGAUACCCAAUGCAAAUUATT against MMP16	inactive: 0.144
GGAGGAGUGUUGGAGUAUUTT against RHOBTB3	inactive: 0.256
GCACAGAGGAACGAACUAATT against PSMC5	active: -1.06
GAUGCUGUAUGAUUAUGUUTT against POLD3	inactive: -0.161
GUAGCGUAACCAACAUUUATT against OLIG1	inactive: -0.387
GGCAGUGUUUAUUUACUAUTT against RHBDL2	inactive: 0.0701
CGACUUGCGCAAGCAUGAATT against ZNF668	inactive: 0
GCAGAUACAUUGAUCGCAUTT against PRPF8	active: -1.54
GGACUAUCUGCAUAGCUUATT against ATP2B4	inactive: 0
CAAGGACCAGAAUAUCUUUTT against RBM28	inactive: 0.649
GGGAAUUCCUUAUAGAGUUTT against DPH5	inactive: 0
AGCUGCACAUGGAAGGGUUTT against LIN28	inactive: -0.348
GCAGGCUAAUCGCAAUGAATT against ANXA13	inactive: -0.467
UGGGAGAAGUACAACAAUATT against FAM12A	inactive: 0.08
GGUUGCUAUCAAUACCCUUTT against SLC22A18	inactive: -0.654
CAUUAUCACUGGUGCACUUTT against CHN1	inactive: 2.1e-05
GGCUCCUCCUUGUACUCAATT against FOXO3	inactive: -0.712
UGUUCAGUCUGGAAUUUCATT against MAP2K1	inactive: 0.942
ACUCAUCUAAGGAUCUAAATT against KITLG	inactive: 0.119

32 entries from above, bar-delimited.
Sequence | median seed-adjusted z-score
GGACUAUGAGCCUACCAAATT against RALA | inactive: 0.553
CAGAUGCCUUGAUUCGCGATT against ZNF543 | inactive: 0
CAUUCAAUCCGGACCAUUUTT against CYP2J2 | inactive: 0.00659
ACAUCAUCGACGAGAAUAATT against LHX1 | inactive: 0
CAGUCUUGAUUGAUAUGGATT against TUBE1 | inactive: -0.00933
CCAUGGAAGAGCUUGCUGATT against FMO5 | inactive: 0.0069
CCUGCUAAGUAGCAUUGAATT against KLHL12 | inactive: -0.0991
GGUCUACACUGACUACGCUTT against DNAH2 | inactive: -0.342
CGGUGCUGCUAGACGUGAATT against HSPB6 | inactive: 0.394
GGAGUUUGUUUGCAAGUAUTT against RREB1 | inactive: -0.414
GGCCUCUCAUGCUUAGUUATT against PGGT1B | inactive: -0.164
GGAGCGGUUCAGAUCAAUATT against RAB39 | inactive: -0.408
GCACAUACCCUGCAGAAGATT against PLIN | inactive: 0.166
GGGUCUCAAUGGGUCUCAUTT against NGB | inactive: 0
GGAUACCCAAUGCAAAUUATT against MMP16 | inactive: 0.144
GGAGGAGUGUUGGAGUAUUTT against RHOBTB3 | inactive: 0.256
GCACAGAGGAACGAACUAATT against PSMC5 | active: -1.06
GAUGCUGUAUGAUUAUGUUTT against POLD3 | inactive: -0.161
GUAGCGUAACCAACAUUUATT against OLIG1 | inactive: -0.387
GGCAGUGUUUAUUUACUAUTT against RHBDL2 | inactive: 0.0701
CGACUUGCGCAAGCAUGAATT against ZNF668 | inactive: 0
GCAGAUACAUUGAUCGCAUTT against PRPF8 | active: -1.54
GGACUAUCUGCAUAGCUUATT against ATP2B4 | inactive: 0
CAAGGACCAGAAUAUCUUUTT against RBM28 | inactive: 0.649
GGGAAUUCCUUAUAGAGUUTT against DPH5 | inactive: 0
AGCUGCACAUGGAAGGGUUTT against LIN28 | inactive: -0.348
GCAGGCUAAUCGCAAUGAATT against ANXA13 | inactive: -0.467
UGGGAGAAGUACAACAAUATT against FAM12A | inactive: 0.08
GGUUGCUAUCAAUACCCUUTT against SLC22A18 | inactive: -0.654
CAUUAUCACUGGUGCACUUTT against CHN1 | inactive: 2.1e-05
GGCUCCUCCUUGUACUCAATT against FOXO3 | inactive: -0.712
UGUUCAGUCUGGAAUUUCATT against MAP2K1 | inactive: 0.942
